Reference: publication PMC12521541, “A novel D-peptide modulates DCLK1 gelsolin interactions, reducing PDAC tumor growth” (Scientific Reports, 2025)
Results are given in words; binding and its absence hold for the method and conditions named. Some results given as binding are weak or reduced against the parent protein; the word gives no strength.

Protein sequences, listed by entry. Tags and fused reporters are not part of them. Residues count along the entry.
UniProt P06396, residues 28-782: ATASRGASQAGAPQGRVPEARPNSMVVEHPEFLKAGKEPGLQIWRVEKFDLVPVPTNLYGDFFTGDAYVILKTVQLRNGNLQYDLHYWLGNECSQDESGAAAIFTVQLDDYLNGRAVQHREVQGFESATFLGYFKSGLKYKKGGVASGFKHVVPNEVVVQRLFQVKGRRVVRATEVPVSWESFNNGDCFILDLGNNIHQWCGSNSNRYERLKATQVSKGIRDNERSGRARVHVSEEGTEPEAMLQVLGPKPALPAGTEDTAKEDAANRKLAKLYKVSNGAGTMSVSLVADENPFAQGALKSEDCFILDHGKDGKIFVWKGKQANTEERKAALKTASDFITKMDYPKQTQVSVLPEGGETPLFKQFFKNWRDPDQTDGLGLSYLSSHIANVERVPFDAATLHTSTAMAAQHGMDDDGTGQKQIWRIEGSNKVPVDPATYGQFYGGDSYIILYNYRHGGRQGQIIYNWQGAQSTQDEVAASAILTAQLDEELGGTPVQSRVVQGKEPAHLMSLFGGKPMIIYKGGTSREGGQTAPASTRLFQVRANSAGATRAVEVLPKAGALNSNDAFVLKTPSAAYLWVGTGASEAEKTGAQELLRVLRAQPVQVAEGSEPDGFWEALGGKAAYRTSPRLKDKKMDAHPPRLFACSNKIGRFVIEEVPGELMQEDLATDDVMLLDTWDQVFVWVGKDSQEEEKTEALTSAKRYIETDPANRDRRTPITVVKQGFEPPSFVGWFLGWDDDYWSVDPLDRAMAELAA

Tests used:
[1] = target: T1, human DCLK1 isoform 4 (beta-short) (human) (UniProt O15075); assay: ELISA; DCLK1 isoform 4 coated on Immulon 2HB plate in 0.1 M NaHCO3 pH 8.6, overnight 4 C; blocked with 1% gelatin in TTBS; gradient of gelsolin added at RT, detected with anti-gelsolin antibody; both purified
T1 sequence: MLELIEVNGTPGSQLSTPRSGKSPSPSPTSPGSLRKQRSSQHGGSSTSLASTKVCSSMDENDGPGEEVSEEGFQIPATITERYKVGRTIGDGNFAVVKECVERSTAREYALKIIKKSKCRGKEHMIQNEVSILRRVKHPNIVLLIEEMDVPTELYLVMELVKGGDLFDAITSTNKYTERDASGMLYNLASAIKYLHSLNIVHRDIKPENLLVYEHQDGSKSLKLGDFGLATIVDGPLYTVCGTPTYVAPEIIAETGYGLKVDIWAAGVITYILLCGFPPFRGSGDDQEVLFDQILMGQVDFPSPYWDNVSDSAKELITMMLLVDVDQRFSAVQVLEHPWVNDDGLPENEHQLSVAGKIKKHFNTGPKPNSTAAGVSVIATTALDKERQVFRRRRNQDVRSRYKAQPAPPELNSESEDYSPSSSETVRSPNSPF

[2] = target: T1, human DCLK1 isoform 4 (beta-short) (human); assay: ELISA; competition: DCLK1 isoform 4 coated; gelsolin or FGF19 added with D-peptide 1, D-peptide 3, D-peptide 5 or the CBT-15 peptide (printed as 20 mg/well); RT; bound gelsolin or FGF19 immunodetected; both purified

Substance: plasma gelsolin (from UniProt P06396 28-782)
- binding [1]: binds
- binding [2]: binds
